Assay results from the supplement of paper PMC8616043.
Counter-ions that a name gives are not always drawn. Some of the results follow. Single values are uncertain here, since repeats match poorly.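 The cells are human U-2 OS cells that stably carry a GFP sensor with a nuclear import signal and a classical export signal. They were transfected to make PR50, a 50-repeat proline–arginine dipeptide protein from the ALS/FTD gene C9ORF72. Each well's nuclear-minus-cytoplasm GFP signal was scaled from in-plate DMSO (low) to PR-only wells (high), then scored against the other test wells on the plate; compounds scoring well below zero were called hits that reverse the PR effect.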

Each compound was assayed on U-2 OS NCT-C biosensor cells expressing PR50 (assay: Z-score of normalised NCT-C biosensor translocation index in PR50-expressing cells; higher = more nuclear biosensor (more disrupted nuclear export)). Settings: 3 µM; 24 h.

Compound	Z-score
CC(C)(S)[C@@H](N)C(=O)O [Penicillamine (D-Penicillamine)]	inactive: -0.582
Cc1cc(C(=O)NNCc2ccccc2)no1 [Isocarboxazid]	inactive: 0.762
COc1ccc(-c2ccc(=N)n(CCCC(=O)O)n2)cc1	inactive: -0.757
CO[C@H]1C[C@H](O[C@H]2[C@H](C)[C@@H](O[C@@H]3O[C@H](C)C[C@H](N(C)C)[C@H]3OC(C)=O)[C@@H](C)C[C@@]3(CO3)C(=O)[C@H](C)[C@@H](OC(C)=O)[C@@H](C)[C@@H](C)OC(=O)[C@@H]2C)O[C@@H](C)[C@@H]1OC(C)=O [Troleandomycin]	inactive: -0.478
CSc1ccc(C(=O)c2[nH]c(=O)[nH]c2C)cc1 [Enoximone]	inactive: 1.83
S=C(Nc1ccccc1)Nc1nccs1 [1-Phenyl-3-(2- thiazolyl)-2- thiourea]	inactive: 0.275
CCCCCCCCCCC[C@@H](C[C@@H]1OC(=O)[C@H]1CCCCCC)OC(=O)[C@H](CC(C)C)NC=O [Orlistat (Tetrahydrolipstatin)]	inactive: -0.295
Cc1ccc(/C(=C\CN2CCCC2)c2cccc(/C=C/C(=O)O)n2)cc1 [Acrivastine]	inactive: 0.0958
CCCCCCCCCCCCCC/C(C(=O)O)=C(\C)C(=O)O [Chaetomellic acid A]	inactive: -0.402
CC(=O)NO [Acetohydroxamic Acid]	inactive: 0.428
N[C@@H](Cn1ccc(=O)c(O)c1)C(=O)O [L-Mimosine from Koa hoale seeds]	inactive: -0.0347
N[C@@H](Cn1ccc(=O)c(O)c1)C(=O)O [L-Mimosine]	inactive: -1.09
Cn1ccnc1S [Methimazole]	inactive: 0.0567
Nc1ccc(-c2nc3ccc(-c4nc5ccc(N)cc5[nH]4)cc3[nH]2)cc1	inactive: 0.355
CS(=O)(=O)CCNCc1ccc(-c2ccc3ncnc(Nc4ccc(OCc5cccc(F)c5)c(Cl)c4)c3c2)o1 [Lapatinib Ditosylate]	inactive: -0.119
CN1CCc2ccccc2Cc2[nH]c3ccccc3c2CC1	inactive: -0.823
CC[C@H](CC[C@@H](C)[C@H]1CC[C@H]2[C@@H]3CC=C4C[C@@H](O)CC[C@]4(C)[C@H]3CC[C@]12C)C(C)C [β-Sitosterol]	inactive: 0.553
CCCN(CCC)C(=O)C(CCC(=O)O)NC(=O)c1ccccc1 (configuration not stated) [Proglumide]	inactive: -0.187
COc1ccccc1N1CCN(CC(O)COc2cccc3ccccc23)CC1 (configuration not stated) [Naftopidil dihydrochloride]	inactive: -0.382
CN1CCC(=C2c3ccccc3CC(=O)c3sccc32)CC1 [Ketotifen Fumarate]	inactive: -0.000237
CN1CCC(=C2c3ccccc3CC(=O)c3sccc32)CC1 [Ketotifen fumarate]	inactive: -0.561

Compound	Z-score
CC(C)(C)C(=O)OCOP(=O)(COCCn1cnc2c(N)ncnc21)OCOC(=O)C(C)(C)C [Adefovir Dipivoxil]	inactive: 0.254
OCC1=C[C@@H](O)[C@@H]2C=CO[C@@H](O[C@@H]3O[C@H](CO)[C@@H](O)[C@H](O)[C@H]3O)[C@H]12 [Aucubin]	inactive: 0.104
CC(=O)NCCc1c[nH]c2ccc(O)cc12 [N-Acetyl-5- hydroxytryptamine]	inactive: 0.0718
O=c1ccc2ccc(O)c(O)c2o1 [Daphnetin]	inactive: -0.542
CCC(NC(C)C)C(O)c1ccc(O)c(O)c1 (configuration not stated) [Isoetharine mesylate salt]	inactive: 1.38
CN1CCc2cccc3c2[C@H]1Cc1ccc(O)c(O)c1-3 [Apomorphine·HCl Hemihydrate]	inactive: 0.789
CN1CCc2cccc3c2[C@H]1Cc1ccc(O)c(O)c1-3 [R-(-)-  Apomorphine hydrochloride hemihydrate]	inactive: 0.0488
COc1cc(/C=C/C(=O)c2ccc(O)cc2O)ccc1O [Homobutein]	inactive: -0.00806
c1cnc2c(c1)ccc1cccnc12 [1,10-Phenanthroline monohydrate]	inactive: -0.453
CCOC(=O)C(C)(C)Oc1ccc(Cl)cc1 [Clofibrate]	inactive: -0.0991
CC(C)NC[C@H](O)COc1ccc(CC(N)=O)cc1 [S(-)-Atenolol]	inactive: 0.0335
CO[C@@]1(NC(=O)CSCC#N)C(=O)N2C(C(=O)O)=C(CSc3nnnn3C)CS[C@@H]21 [Cefmetazole sodium salt]	inactive: 0.00972
C[C@@H]1[C@H](O)[C@@H](C)/C=C/C=C/C=C/C=C/C=C/C=C/C=C/[C@H](O[C@@H]2O[C@H](C)[C@@H](O)[C@H](N)[C@@H]2O)C[C@@H]2O[C@](O)(C[C@@H](O)C[C@@H](O)[C@H](O)CC[C@@H](O)C[C@@H](O)CC(=O)O[C@H]1C)C[C@H](O)[C@H]2C(=O)O [Amphotericin B]	inactive: 0.0445
O=C1Cc2cc(CCN3CCN(c4nsc5ccccc45)CC3)c(Cl)cc2N1 [Ziprasidone HCl monohydrate]	inactive: 1.65
CC(C)/N=c1\cc2n(-c3ccc(Cl)cc3)c3ccccc3nc-2cc1Nc1ccc(Cl)cc1 [Clofazimine]	inactive: 0.309
Cc1cc(C(=O)Cn2cc(C#N)ccc2=O)c(C)n1Cc1ccccc1	inactive: -0.838
CCNC(=O)CC[C@H](N)C(=O)O [L-Theanine]	inactive: 0.596
CCN[C@H]1C[C@H](C)S(=O)(=O)c2sc(S(N)(=O)=O)cc21 [Dorzolamide·HCl]	inactive: 0.789
N[C@H](CO)C(=O)O [D-Serine]	inactive: -0.96
CC(=O)N(O)CCCCCNC(=O)CCC(=O)N(O)CCCCCNC(=O)CCC(=O)N(O)CCCCCN [Deferoxamine Mesylate]	inactive: -0.173
CC(C)(C(=O)c1cccnc1)c1cccnc1 [Metyrapone]	inactive: -0.222

Reprinted from above for reference:
Compound	Z-score
O=C1Cc2cc(CCN3CCN(c4nsc5ccccc45)CC3)c(Cl)cc2N1 [Ziprasidone HCl monohydrate]	inactive: 1.65
CC(C)/N=c1\cc2n(-c3ccc(Cl)cc3)c3ccccc3nc-2cc1Nc1ccc(Cl)cc1 [Clofazimine]	inactive: 0.309
Cc1cc(C(=O)Cn2cc(C#N)ccc2=O)c(C)n1Cc1ccccc1	inactive: -0.838
CCNC(=O)CC[C@H](N)C(=O)O [L-Theanine]	inactive: 0.596

(cont.)

Compound	Z-score
Nc1ncn([C@H]2C[C@H](O)[C@@H](CO)O2)c(=O)n1 [Decitabine]	inactive: -0.267
Nc1ncn([C@H]2C[C@H](O)[C@@H](CO)O2)c(=O)n1 [5-Aza-2'-deoxycytidine]	inactive: 0.41
NCCCCNCCCN [Spermidine trihydrochloride]	inactive: 0.542
O=c1cc(-c2ccc(O)c(O)c2)oc2cc(O)cc(O)c12 [Luteolin]	inactive: -0.5
CCOC(=O)[C@]12CC1/C(=N\O)c1ccccc1O2 (some centres not stated)	inactive: 0.283
CC(=O)Nc1ccc(NC(=S)NC(=O)c2ccc(C(C)(C)C)cc2)cc1 [Tenovin-1]	active: -1.99
CCCCC1OC(=O)C2=CCCCC21 (configuration not stated) [Sedanolide]	inactive: -0.409
NC12CC3CC(CC(C3)C1)C2 [Amantadine hydrochloride]	inactive: 1.15
NC12CC3CC(CC(C3)C1)C2 [Amantadine·HCl]	active: -3.19
CO[C@H]1O[C@@H]2O[C@@]3(C)CC[C@H]4[C@H](C)CC[C@@H]([C@H]1C)[C@@]24OO3 [Artemether]	inactive: -0.581
CC1(C2CCCC2)Cc2cc(OCC(=O)O)c(Cl)c(Cl)c2C1=O (configuration not stated)	inactive: 0.321
Clc1ccc(COC(Cn2ccnc2)c2ccc(Cl)cc2Cl)c(Cl)c1 (configuration not stated) [Miconazole]	inactive: -0.0813
NCC=CC(=O)O (stereo in doubt) [cis-4- Aminocrotonic acid]	inactive: -0.159
CC(=O)[C@H]1CC[C@H]2[C@@H]3CC=C4C[C@@H](OS(=O)(=O)O)CC[C@]4(C)[C@H]3CC[C@]12C [Pregnenolone sulfate sodium]	inactive: 2.65
COc1cc2c(c(OC)c1OC)-c1c(cc(OC)c(OC)c1OC)CC(C)C(C)C2 (stereo not drawn) [R(+)-Schisandrin A]	inactive: -0.0895
O=C(O)c1ccccc1Nc1ccccc1 [N-Phenyl anthranilic acid]	inactive: -0.00987
CCCCCCCCCCC1=C(C)C(=O)C(OC)=C(OC)C1=O [Decylubiquinone]	inactive: -0.329
Cc1ccc(/C=N/NC(=O)c2n[nH]c3c2CCCC3)cc1 [Suprafenacine]	inactive: 3.01
C=CC[C@H](N)C(=O)O [L-allylglycine]	inactive: -0.157
C[C@H](NC(=O)CNC(=O)c1cccc(Cl)c1)c1ccccc1	inactive: -0.0954
